Results on three substances are retold here after article PMC7549768.

Protein sequences, listed by entry. Tags and fused reporters are not part of them.
UniProt P61026: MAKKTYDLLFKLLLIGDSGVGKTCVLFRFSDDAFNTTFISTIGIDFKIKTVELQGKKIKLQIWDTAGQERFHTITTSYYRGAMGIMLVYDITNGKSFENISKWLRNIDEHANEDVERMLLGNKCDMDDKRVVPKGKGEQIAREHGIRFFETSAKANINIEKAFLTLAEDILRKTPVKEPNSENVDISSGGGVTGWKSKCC
UniProt Q9DCC8: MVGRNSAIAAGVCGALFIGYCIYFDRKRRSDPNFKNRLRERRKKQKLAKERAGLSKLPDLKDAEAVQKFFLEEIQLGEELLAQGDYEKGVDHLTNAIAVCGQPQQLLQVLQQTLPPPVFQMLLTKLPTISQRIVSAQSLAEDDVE
UniProt Q15388: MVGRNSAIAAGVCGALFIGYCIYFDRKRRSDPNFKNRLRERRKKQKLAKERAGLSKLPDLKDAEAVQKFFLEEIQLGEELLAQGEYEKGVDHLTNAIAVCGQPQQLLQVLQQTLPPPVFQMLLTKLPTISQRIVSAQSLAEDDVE

In one experiment the target is T1, FLAG-TBC1D21 (UniProt Q9D9D3).
T1 sequence: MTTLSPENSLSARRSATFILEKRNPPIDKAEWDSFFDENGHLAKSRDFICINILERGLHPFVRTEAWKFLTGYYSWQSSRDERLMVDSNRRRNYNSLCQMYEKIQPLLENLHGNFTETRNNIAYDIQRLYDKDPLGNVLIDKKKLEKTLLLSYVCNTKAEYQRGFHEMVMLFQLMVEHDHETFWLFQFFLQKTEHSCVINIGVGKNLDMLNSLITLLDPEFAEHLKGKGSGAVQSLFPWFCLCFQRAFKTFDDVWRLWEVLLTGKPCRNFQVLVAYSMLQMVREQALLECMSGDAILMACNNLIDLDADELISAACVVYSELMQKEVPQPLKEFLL
Briefly: co-IP; NT2D1 cells transfected with pFLAG-TBC1D21 and GFP-RAB10; lysate (4 mg protein in 1 mL) pre-cleared with A/G beads, incubated overnight with anti-FLAG or control IgG and A/G beads, washed twice with 1X PBS; immunoblot with FLAG, GFP, RAB10 and TOMM20 antibodies.

Experiment [1] deals with T2, TBC1D21 (mouse (endogenous in sperm)) (UniProt Q9D9D3).
T2 sequence: T1 sequence
As to the kind of experiment: proximity ligation; Duolink PLA on purified wild-type murine sperm fixed on slides; anti-TBC1D21 with anti-TOMM20 or anti-DNAH7 antibodies, 12 hours at 4°C; probes less than 40 nm apart give a signal; midpiece stained with Mito-tracker.

No constants are given. Whether binding was seen depends on the method and setting. In cells and extracts the contact can be indirect. Some entries that bind do so weakly or less than the wild type. For part of these data: Where a sequence is shown, tags or fusion partners need not be part of it.

GFP-RAB10 (from UniProt P61026 1-200): the binding entry in the experiment with FLAG-TBC1D21 is recorded as “binds”.

As for “TOMM20 (translocase of outer membrane 20 of mitochondria) (from UniProt Q9DCC8 1-145)”, the binding entry in experiment [1] was “binds”.

With “TOMM20 (translocase of outer membrane 20 of mitochondria) (from UniProt Q15388 1-145)”, the binding result with FLAG-TBC1D21 was “binds”.
